Experimental findings from patent publication US20180134769A1 are described below.

In this test the target is TcdB-RBD-f1 (Clostridium difficile) (UniProt P18177). Put plainly: ELISA, antigen coated; member inferred. (In an ELISA, binding on a coated surface is turned into a signal by an enzyme label.)

These are yes or no findings as the source states them, for the method shown. Some results given as binding are weak or reduced against the parent protein; the word gives no strength.

B1: B15.5 (VHH)
VHH: QVQLVESGGDLVQAGGSLRLSCAASGSISRISTMGWYRQAPGKQRELVATISTGGTTNYAESVKGRFTVSRDNAKNTMYLQMNSLKPEDTAVYYCAAGWKVVRGSLEYEYSGQGTQVTVSS
For the molecule B1, the binding result was “binds”.
